# Source: the supplement of paper PMC10373366
# Where a name gives a salt, the structure may show the parent alone. This is one part of the list. Repeats are few or missing, and single values can be far off.
# What was measured:
# [1] = system: A2780; assay: cell growth inhibition ratio vs untreated control (CCK8); higher = stronger inhibition of cell viability; settings: 10 µM; 48 h
# Protocol: (§1)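 Natural product library (Topscience) screened at 10 µM final concentration for 48 h on ovarian cancer A2780 cells and patient-derived ovarian cancer cells (PDC) in 96-well plates; viability read by CCK8 and reported as inhibition ratio (%) relative to untreated control. Single-dose primary screen.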
# [2] = system: patient-derived ovarian cancer cells (PDC); assay: as above; settings: 10 µM; 48 h
# Protocol: as §1
Structure (SMILES),cell growth inhibition ratio [1] [%],cell growth inhibition ratio [2] [%]
OC[C@H]1O[C@H](O)[C@H](O)[C@@H](O)[C@H]1O [Alpha-D-galactose],-0.586,1.02
Cc1cc(O)cc(O)c1C(=O)O [Orsellinic acid],-0.472,-3.67
O=C(/C=C/c1ccc(O)cc1)c1ccc(O)cc1O [Isoliquiritigenin],-45.9,-11.1
C=C(C)[C@H]1CC=C(C)C(=O)C1 [(S)-(+)-Carvone],16.8,16.1
O=C(O)CCCCCCCC(O)C(O)CCCCCCO (stereo not given) [Aleuritic Acid],-2.21,-12.5
COc1cc(/C=C/C(=O)CC(=O)/C=C/c2ccc(O)c(OC)c2)ccc1O [Curcumin],18.9,-3.58
"C[C@H](O)[C@H]1CC[C@H]2[C@@H]3CC[C@@H]4C[C@H](O)CC[C@]4(C)[C@H]3CC[C@]12C [5Beta-Pregnane-3Alpha,20alpha-Diol]",36,41.4
C[C@@H]1O[C@@H](O[C@H]2[C@H](O[C@H]3CC[C@@]4(C)[C@@H](CC[C@]5(C)[C@@H]4CC=C4[C@@H]6CC(C)(C)CC[C@]6(C(=O)O[C@@H]6O[C@H](CO[C@@H]7O[C@H](CO)[C@@H](O)[C@H](O)[C@H]7O)[C@@H](O)[C@H](O)[C@H]6O)CC[C@]45C)[C@]3(C)CO)OC[C@H](O)[C@@H]2O)[C@H](O)[C@H](O[C@@H]2O[C@H](CO)[C@@H](O[C@@H]3O[C@H](CO)[C@@H](O)[C@H](O)[C@H]3O)[C@H](O)[C@H]2O)[C@H]1O [Macranthoidin B],7.79,-5.06
C/C=C\c1ccc(OC)cc1 [cis-Anethol],0.808,-10
OC[C@H]1OC(O)[C@@H](O)[C@@H](O)[C@@H]1O (stereo not given in full) [Mannose],12.2,4.47
COc1ccc(-c2coc3cc(O[C@@H]4O[C@H](CO)[C@@H](O)[C@H](O)[C@H]4O)ccc3c2=O)cc1O [Calycosin-7-O-beta-D-glucoside],3.27,-6.95
C[N+](C)(C)CC(=O)O [Betaine hydrochloride],18.9,-7.89
CO[C@]1(CC[C@@H](C)CO[C@@H]2O[C@H](CO)[C@@H](O)[C@H](O)[C@H]2O)O[C@H]2C[C@H]3[C@@H]4CC=C5C[C@@H](O[C@@H]6O[C@H](CO)[C@@H](O[C@@H]7O[C@@H](C)[C@H](O)[C@@H](O)[C@H]7O)[C@H](O)[C@H]6O[C@@H]6O[C@@H](C)[C@H](O)[C@@H](O)[C@H]6O)CC[C@]5(C)[C@H]4CC[C@]3(C)[C@H]2[C@@H]1C [Methyl protodioscin],93.3,92.3
Cc1coc2c1C(=O)C(=O)c1c-2ccc2c1CCCC2(C)C [Tanshinone IIA],87.8,15.2
O=c1oc2ccccc2c(O)c1Cc1c(O)c2ccccc2oc1=O [Dicumarol],35.3,-2.44
OC[C@@H](O)[C@@H](O)[C@H](O)[C@@H](O)CO [D-Sorbitol],9.22,6.66
O[C@@H]1[C@@H](O)[C@@H](OC/C=C/c2ccccc2)O[C@H](CO[C@@H]2OC[C@H](O)[C@H](O)[C@H]2O)[C@H]1O,-1.22,0.707
CCC(=O)O[C@]1(C(=O)CO)CC[C@H]2[C@@H]3CCC4=CC(=O)CC[C@]4(C)[C@H]3CC[C@@]21C [17 alpha-propionate],18.8,0.961
O=C(O[C@@H]1Cc2c(O)cc(O)cc2O[C@@H]1c1cc(O)c(O)c(O)c1)c1cc(O)c(O)c(O)c1 [(-)-Epigallocatechin Gallate],-0.72,-1.74
CC1(C)OC(=O)C=C[C@]2(C)[C@H]3CC[C@@]4(C)[C@H](c5ccoc5)OC(=O)[C@H]5O[C@]54[C@]3(C)C(=O)C[C@@H]12 [Obacunone],-7.63,2.41
CC(C)C1=CC2=CC[C@@H]3[C@](C)(CCC[C@@]3(C)C(=O)O)[C@H]2CC1 [Abietic Acid],7.24,9.07
O=C(O[C@@H]1Cc2c(O)cc(O)cc2O[C@H]1c1cc(O)c(O)c(O)c1)c1cc(O)c(O)c(O)c1 [(-)-Gallocatechin gallate],10.8,1.48
O=c1ccc2cc3ccoc3cc2o1 [Psoralen],0.767,-9.65
NCCS(=O)(=O)O [Taurine],5.99,-10.8
CCOC(=O)C1=C[C@]2(CC)CCCN3CCc4c(n1c1ccccc41)[C@@H]32 [Vinpocetine],-0.464,-9.59
COc1cc(CNC(=O)CCCC/C=C/C(C)C)ccc1O [Capsaicin],21.8,8.95
C=C[C@H]1CN2CC[C@H]1C[C@@H]2[C@@H](O)c1ccnc2ccc(OC)cc12 [Quinidine hydrochloride],1.8,5.09
C=C1CC23CCC4C(C)(C(=O)OC5OC(CO)C(O)C(O)C5O)CCCC4(C)C2CCC1(OC1OC(CO)C(O)C(OC2OC(CO)C(O)C(O)C2O)C1OC1OC(C)C(O)C(O)C1O)C3 (stereo not given) [Dulcoside B],0.311,-5.5

Structure (SMILES),cell growth inhibition ratio [1] [%],cell growth inhibition ratio [2] [%]
O=C(O)[C@H]1O[C@@H](Oc2cc3oc(-c4ccc(O)cc4)cc(=O)c3c(O)c2O)[C@H](O)[C@@H](O)[C@@H]1O [Scutellarin],5.2,-3.09
COc1cc2c(cc1OC)[C@@H]1Cc3ccc(OC)c(OC)c3CN1CC2 [Tetrahydropalmatine],5.43,-8.5
COC(=O)[C@@]1(C)CC[C@]2(C(=O)O)CC[C@]3(C)C(=CC[C@@H]4[C@@]5(C)C[C@H](O)[C@H](O[C@@H]6OC[C@@H](O[C@@H]7O[C@H](CO)[C@@H](O)[C@H](O)[C@H]7O)[C@H](O)[C@H]6O)[C@@](C)(CO)[C@@H]5CC[C@]43C)[C@@H]2C1 [Esculentoside A],19.3,3.72
N[C@@H](Cn1ccc(=O)c(O)c1)C(=O)O [L-Mimosine],9.62,-3.86
O=c1cc(-c2ccccc2)oc2cc(O[C@@H]3O[C@H](CO[C@@H]4O[C@H](CO)[C@@H](O)[C@H](O)[C@H]4O)[C@@H](O)[C@H](O)[C@H]3O)c(O)c(O)c12 [Oroxin B],8.89,2.14
COC(=O)c1cc(OC)c(OC)c(OC)c1 [Methyl EudesMate],-0.825,5.81
COC(=O)CC[C@@H](C)[C@H]1CC[C@H]2[C@@H]3[C@H](O)C[C@@H]4C[C@H](O)CC[C@]4(C)[C@H]3C[C@H](O)[C@]12C [Methyl Cholate],12.9,-7.83
O=C(O)C(O)Cc1ccc(O)c(O)c1 (stereo not given) [Sodium Danshensu],6.27,-26.8
COc1ccc(-c2cc(=O)c3c(O)c(OC)c(O)cc3o2)cc1OC [Eupatilin],22.6,0.387
COc1ccc(/C=C/C(=O)O)cc1O [Isoferulic acid],3.26,-5.66
COC(=O)c1c2c(c3ccccc3c1O)OC(C)(C)C=C2 [Mollugin],-6.18,26.9
OCC1=C[C@@H](O)[C@@H]2C=CO[C@@H](O[C@@H]3O[C@H](CO)[C@@H](O)[C@H](O)[C@H]3O)[C@H]12 [Aucubin],23,5.84
O=C(O)c1cc(=O)[nH]c(=O)[nH]1 [Orotic acid],5.83,-5.72
N[C@H]1C(O)O[C@H](CO)[C@@H](O)[C@@H]1O (stereo not given in full) [Glucosamine],8.69,4.21
CC(=O)Oc1cc(C)c(OC(C)=O)c2ccccc12 [Menadiol Diacetate],10.7,7.5
CC(=O)N[C@H]1[C@H]([C@H](O)[C@H](O)CO)OC(O)(C(=O)O)C[C@@H]1O (stereo not given in full) [N-Acetylneuraminic acid],-5.35,-0.261
OCC1OC(OC2C(CO)OC(O)C(O)C2O)C(O)C(O)C1O [D-Cellobiose],-0.523,-9.81
COc1cc(C=O)cc(OC)c1O [syringaldehyde],13.6,-12.3
CC[C@H](C)CCCCC(=O)N[C@@H](CCNCS(=O)(=O)O)C(=O)N[C@H](C(=O)N[C@@H](CCNCS(=O)(=O)O)C(=O)N[C@H]1CCNC(=O)[C@H]([C@@H](C)O)NC(=O)[C@H](CCNCS(=O)(=O)O)NC(=O)[C@H](CCN)NC(=O)[C@H](CC(C)C)NC(=O)[C@@H](CC(C)C)NC(=O)[C@H](CCNCS(=O)(=O)O)NC1=O)[C@@H](C)O [Colistimethate Sodium],0.217,11
OC[C@H]1O[C@@H](Oc2cc(O)cc(/C=C/c3ccc(O)cc3)c2)[C@H](O)[C@@H](O)[C@@H]1O [Piceid],-5.29,-8.59
COc1ccc2ccc(=O)oc2c1CC=C(C)C [Osthole],-3.45,-6.85
COc1cc(O)c2c(c1)oc(=O)c1c3cc(O)c(O)cc3oc21 [Wedelolactone],51.7,32.9
C[C@H]1O[C@@H](O[C@H]2[C@@H](O)C[C@H](O[C@H]3[C@@H](O)C[C@H](O[C@H]4CC[C@@]5(C)[C@H](CC[C@@H]6[C@@H]5CC[C@]5(C)[C@@H](C7=CC(=O)OC7)CC[C@]65O)C4)O[C@@H]3C)O[C@@H]2C)C[C@H](O)[C@@H]1O [Digitoxin],86.6,79.7
C=C1CC[C@@H]2[C@](C)(COC(=O)CCC(=O)O)[C@H](OC(=O)CCC(=O)O)CC[C@@]2(C)[C@@H]1/C=C/C1=CCOC1=O [Dehydroandrographolide Succinate Potasium Salt],12.8,9.48
COC(=O)C1=CO[C@@H](O[C@@H]2O[C@H](CO)[C@@H](O)[C@H](O)[C@H]2O)[C@@H]2C(CO)=CC[C@H]12 [Geniposide],8.13,2.35
CC(C)=C1C/C=C(\C)CC/C=C(\C)CC1=O [Germacrone],-1.61,5.44
Nc1ncnc2c1ncn2[C@@H]1O[C@H](COP(=O)(O)OP(=O)(O)OP(=O)(O)O)[C@@H](O)[C@H]1O [Adenosine disodium triphosphate],7.47,-10.6

# For reference, 3 of the compounds above.
Structure (SMILES),cell growth inhibition ratio [1] [%],cell growth inhibition ratio [2] [%]
CC(=O)Oc1cc(C)c(OC(C)=O)c2ccccc12 [Menadiol Diacetate],10.7,7.5
CC(=O)N[C@H]1[C@H]([C@H](O)[C@H](O)CO)OC(O)(C(=O)O)C[C@@H]1O (stereo not given in full) [N-Acetylneuraminic acid],-5.35,-0.261
OCC1OC(OC2C(CO)OC(O)C(O)C2O)C(O)C(O)C1O [D-Cellobiose],-0.523,-9.81
